Measurements: the supplement of paper PMC10849652
The list shows a part of the results.

By UniProt entry, the sequences of proteins in these tests, tags left out. Where a name states a change or a piece, a line headed by the entry shows the natural chain unless it says otherwise.
UniProt Q9Y2U9: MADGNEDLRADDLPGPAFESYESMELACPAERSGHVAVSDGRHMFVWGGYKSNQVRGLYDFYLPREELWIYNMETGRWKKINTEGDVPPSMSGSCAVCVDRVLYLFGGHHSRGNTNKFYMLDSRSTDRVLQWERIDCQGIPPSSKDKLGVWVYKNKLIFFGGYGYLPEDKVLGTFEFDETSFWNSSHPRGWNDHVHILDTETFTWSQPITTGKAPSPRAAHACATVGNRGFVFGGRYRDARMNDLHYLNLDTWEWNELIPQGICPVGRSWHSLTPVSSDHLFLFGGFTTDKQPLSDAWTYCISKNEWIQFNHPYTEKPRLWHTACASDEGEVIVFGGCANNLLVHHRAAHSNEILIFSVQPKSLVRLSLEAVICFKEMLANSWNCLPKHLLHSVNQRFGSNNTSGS
UniProt O60870: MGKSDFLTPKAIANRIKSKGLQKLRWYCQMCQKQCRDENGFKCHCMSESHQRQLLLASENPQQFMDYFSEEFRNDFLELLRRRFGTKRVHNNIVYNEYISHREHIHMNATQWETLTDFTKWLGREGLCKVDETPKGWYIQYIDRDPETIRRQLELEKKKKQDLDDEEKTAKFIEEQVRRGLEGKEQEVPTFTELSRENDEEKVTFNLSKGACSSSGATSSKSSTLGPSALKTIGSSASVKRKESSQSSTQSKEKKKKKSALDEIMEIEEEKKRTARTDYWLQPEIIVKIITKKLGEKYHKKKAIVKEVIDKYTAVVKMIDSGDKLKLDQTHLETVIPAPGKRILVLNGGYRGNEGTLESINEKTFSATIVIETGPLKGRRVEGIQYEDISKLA
UniProt Q4G0X4: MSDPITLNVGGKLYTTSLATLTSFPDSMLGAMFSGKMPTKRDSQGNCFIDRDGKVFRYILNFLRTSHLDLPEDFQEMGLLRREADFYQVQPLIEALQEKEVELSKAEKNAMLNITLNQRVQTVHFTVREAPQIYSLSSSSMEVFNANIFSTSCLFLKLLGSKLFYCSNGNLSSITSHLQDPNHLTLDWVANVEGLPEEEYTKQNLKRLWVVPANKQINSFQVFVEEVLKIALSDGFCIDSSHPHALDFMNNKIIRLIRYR
UniProt Q92845: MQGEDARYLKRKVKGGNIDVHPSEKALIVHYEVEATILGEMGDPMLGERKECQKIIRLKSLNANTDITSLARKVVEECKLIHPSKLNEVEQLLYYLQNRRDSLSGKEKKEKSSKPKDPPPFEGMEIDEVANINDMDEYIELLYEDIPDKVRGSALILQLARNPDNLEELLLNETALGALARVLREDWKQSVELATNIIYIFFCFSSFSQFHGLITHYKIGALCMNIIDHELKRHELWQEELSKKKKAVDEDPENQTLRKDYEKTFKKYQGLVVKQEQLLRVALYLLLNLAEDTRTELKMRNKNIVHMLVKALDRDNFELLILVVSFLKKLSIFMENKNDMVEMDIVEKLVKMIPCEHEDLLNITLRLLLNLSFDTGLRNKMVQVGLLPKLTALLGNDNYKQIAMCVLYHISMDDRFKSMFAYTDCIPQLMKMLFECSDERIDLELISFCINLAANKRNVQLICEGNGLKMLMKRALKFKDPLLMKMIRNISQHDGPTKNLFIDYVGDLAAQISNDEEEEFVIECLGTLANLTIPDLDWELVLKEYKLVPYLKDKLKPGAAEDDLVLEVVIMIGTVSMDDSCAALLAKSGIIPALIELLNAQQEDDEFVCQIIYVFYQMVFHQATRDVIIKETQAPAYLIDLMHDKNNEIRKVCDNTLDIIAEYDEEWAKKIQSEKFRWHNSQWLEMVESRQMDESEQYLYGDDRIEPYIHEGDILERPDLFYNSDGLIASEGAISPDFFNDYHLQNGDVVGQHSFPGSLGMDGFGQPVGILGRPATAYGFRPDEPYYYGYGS
UniProt Q9BW19: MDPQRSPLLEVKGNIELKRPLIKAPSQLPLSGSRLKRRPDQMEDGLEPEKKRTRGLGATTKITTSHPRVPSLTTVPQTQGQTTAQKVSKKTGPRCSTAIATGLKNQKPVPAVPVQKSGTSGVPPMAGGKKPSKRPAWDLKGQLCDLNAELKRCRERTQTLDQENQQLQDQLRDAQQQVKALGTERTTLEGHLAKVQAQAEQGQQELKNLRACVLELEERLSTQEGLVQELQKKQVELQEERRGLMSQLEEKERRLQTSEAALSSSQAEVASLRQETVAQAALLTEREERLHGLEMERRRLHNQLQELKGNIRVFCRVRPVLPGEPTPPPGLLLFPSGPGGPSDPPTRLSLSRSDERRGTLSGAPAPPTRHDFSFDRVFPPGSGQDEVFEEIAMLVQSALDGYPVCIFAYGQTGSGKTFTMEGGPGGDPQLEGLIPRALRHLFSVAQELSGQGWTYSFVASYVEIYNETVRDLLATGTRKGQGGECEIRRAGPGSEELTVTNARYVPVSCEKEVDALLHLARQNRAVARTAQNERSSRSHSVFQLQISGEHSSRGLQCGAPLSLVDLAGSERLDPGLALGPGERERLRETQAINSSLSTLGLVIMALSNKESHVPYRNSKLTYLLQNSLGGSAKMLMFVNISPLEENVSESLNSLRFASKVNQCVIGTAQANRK
UniProt Q07866: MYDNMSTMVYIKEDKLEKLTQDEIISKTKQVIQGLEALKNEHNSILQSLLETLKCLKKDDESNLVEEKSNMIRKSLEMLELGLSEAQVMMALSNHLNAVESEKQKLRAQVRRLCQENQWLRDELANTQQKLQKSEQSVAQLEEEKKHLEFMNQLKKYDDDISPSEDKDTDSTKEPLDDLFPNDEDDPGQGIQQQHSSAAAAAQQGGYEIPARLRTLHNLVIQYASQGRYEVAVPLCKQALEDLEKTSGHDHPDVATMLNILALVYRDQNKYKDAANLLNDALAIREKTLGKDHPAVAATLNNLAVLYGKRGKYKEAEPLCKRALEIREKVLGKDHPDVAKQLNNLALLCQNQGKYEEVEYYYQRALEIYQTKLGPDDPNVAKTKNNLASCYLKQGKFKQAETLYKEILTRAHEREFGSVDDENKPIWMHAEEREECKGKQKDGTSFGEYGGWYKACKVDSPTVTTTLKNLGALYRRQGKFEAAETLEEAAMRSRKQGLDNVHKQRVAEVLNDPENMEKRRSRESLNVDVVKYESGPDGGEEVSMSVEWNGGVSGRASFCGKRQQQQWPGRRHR
UniProt Q9NZM3: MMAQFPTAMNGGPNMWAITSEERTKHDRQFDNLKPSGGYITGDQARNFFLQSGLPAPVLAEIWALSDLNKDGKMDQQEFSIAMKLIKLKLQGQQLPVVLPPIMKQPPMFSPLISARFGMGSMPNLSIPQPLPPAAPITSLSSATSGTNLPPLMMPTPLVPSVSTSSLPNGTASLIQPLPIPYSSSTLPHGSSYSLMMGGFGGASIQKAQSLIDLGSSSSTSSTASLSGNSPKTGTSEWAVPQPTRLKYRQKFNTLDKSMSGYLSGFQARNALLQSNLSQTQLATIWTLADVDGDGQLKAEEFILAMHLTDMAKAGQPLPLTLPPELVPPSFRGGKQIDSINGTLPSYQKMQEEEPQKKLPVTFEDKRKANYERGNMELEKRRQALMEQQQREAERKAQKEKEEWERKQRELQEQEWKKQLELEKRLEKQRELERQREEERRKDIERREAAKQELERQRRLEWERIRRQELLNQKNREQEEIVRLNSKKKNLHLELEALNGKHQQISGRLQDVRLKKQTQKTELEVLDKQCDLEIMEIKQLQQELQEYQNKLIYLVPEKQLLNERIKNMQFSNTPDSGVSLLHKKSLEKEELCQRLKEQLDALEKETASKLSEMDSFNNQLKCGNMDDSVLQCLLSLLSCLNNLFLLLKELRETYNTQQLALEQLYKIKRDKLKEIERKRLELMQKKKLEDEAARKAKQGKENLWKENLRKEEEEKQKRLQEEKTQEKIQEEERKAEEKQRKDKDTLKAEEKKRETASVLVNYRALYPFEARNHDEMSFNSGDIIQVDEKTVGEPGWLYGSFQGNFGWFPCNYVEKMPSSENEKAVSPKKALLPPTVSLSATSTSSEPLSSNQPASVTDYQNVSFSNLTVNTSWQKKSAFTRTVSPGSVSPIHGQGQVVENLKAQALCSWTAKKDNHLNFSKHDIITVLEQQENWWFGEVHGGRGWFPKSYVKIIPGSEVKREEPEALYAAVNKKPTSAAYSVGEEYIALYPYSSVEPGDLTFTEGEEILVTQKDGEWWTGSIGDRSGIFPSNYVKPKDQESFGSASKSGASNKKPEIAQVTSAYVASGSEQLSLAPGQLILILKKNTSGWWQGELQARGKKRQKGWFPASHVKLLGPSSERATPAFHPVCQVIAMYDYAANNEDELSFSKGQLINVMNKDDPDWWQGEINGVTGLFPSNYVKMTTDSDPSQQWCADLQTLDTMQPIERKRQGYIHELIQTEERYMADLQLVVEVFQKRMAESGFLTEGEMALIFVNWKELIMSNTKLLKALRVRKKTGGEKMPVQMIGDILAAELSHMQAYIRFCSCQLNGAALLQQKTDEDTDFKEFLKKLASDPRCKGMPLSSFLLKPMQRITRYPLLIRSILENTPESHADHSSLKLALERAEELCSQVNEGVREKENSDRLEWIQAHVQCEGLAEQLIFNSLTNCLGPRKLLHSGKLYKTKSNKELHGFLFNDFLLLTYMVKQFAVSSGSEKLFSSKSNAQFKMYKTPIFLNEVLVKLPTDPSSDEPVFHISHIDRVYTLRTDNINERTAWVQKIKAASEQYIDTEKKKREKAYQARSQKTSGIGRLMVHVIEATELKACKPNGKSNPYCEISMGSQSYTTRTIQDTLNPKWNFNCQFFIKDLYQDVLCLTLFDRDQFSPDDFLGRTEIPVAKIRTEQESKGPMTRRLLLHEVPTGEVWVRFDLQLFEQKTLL
UniProt Q15811: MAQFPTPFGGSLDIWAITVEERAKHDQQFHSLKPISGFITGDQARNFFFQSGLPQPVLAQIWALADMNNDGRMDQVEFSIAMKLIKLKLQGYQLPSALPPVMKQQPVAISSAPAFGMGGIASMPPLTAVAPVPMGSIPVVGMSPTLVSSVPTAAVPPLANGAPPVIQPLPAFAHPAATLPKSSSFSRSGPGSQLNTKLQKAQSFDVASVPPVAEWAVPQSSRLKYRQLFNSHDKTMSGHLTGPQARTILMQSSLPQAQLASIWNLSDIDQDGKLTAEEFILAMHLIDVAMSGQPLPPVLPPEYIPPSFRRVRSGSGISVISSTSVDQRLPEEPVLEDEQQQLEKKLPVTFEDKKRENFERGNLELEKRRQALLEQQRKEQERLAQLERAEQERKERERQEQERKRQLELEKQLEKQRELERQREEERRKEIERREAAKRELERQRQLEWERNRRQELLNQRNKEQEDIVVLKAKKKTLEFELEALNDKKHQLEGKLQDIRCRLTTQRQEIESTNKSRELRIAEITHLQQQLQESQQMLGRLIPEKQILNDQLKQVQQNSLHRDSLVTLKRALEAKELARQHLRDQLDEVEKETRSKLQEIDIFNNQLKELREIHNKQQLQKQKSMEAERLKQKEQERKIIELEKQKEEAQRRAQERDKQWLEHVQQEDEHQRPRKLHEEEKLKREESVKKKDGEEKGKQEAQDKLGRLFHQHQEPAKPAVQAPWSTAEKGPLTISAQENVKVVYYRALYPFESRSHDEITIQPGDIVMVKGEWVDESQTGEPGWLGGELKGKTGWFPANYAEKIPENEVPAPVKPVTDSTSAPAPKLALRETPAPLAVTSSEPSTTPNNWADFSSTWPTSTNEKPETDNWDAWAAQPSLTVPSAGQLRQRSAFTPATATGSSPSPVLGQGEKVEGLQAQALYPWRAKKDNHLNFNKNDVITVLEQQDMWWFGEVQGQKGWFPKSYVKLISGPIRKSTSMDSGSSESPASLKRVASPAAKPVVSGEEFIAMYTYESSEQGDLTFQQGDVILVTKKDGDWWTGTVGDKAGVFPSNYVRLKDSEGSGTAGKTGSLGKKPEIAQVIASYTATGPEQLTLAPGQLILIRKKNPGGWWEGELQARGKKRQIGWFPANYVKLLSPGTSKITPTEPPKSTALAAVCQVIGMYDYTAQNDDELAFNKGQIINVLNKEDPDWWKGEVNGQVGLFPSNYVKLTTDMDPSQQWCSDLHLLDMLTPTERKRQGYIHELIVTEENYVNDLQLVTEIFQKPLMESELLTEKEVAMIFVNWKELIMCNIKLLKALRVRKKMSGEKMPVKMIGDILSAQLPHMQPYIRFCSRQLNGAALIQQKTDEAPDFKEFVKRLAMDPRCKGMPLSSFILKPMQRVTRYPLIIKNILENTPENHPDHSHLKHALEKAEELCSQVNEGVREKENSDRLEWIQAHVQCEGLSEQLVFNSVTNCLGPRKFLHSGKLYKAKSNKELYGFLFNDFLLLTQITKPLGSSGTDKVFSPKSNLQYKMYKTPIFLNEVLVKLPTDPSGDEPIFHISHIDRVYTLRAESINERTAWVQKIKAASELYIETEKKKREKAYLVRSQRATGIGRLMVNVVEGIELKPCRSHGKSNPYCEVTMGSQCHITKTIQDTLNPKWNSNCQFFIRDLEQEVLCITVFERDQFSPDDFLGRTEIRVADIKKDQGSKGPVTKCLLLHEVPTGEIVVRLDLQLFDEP

Tests used:
Assay in all cases: log2 fold change, soluble protein after heating vs DMSO (PISA); higher = thermal stabilisation; K562 cells, 10 uM, 30 min; active = over 0.2 and 3.5 SD of the protein, either way, in both replicates (recomputed)
[1] = compound: CNC(=O)c1ccc(Nc2ncc(C(F)(F)F)c(NCc3nccnc3N(C)S(C)(=O)=O)n2)cc1 [defactinib]
Outline: (§1)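 Soluble protein was quantified by TMTpro 16plex LC-MS/MS after channel sums were equalised. It was obtained as the supernatant after 21,000xg for 90 min from pooled aliquots of K562 cells (2×10^6 cells/mL, 10 μM compound, 30 min) heated for 3 min across 48°C-58°C and extracted in PBS with 0.5% NP-40 at 4°C. Thermal stability values are relative to control samples and come from duplicates. They are given as log2 fold changes.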

[2] = compound: CNCc1ccc(-c2[nH]c3cc(F)cc4c3c2CCNC4=O)cc1 [rucaparib]
Outline: as §1

[3] = compound: COC(=O)N[C@@H](C)CNc1nccc(-c2cn(C(C)C)nc2-c2cc(Cl)cc(NS(C)(=O)=O)c2F)n1 [encorafenib]
Outline: as §1

[4] = compound: COC(=O)[C@H](CCSC)NC(=O)C1=C(C=C(C=C1)NC[C@H](CS)N)C2=CC=CC=C2
Outline: as §1

[5] = compound: COc1cc(Nc2ncc3c(n2)-c2ccc(Cl)cc2C(c2c(F)cccc2OC)=NC3)ccc1C(=O)O [alisertib]
Outline: as §1

[6] = compound: COc1cccc2cc(-c3nc([C@H]4CC[C@H](C(=O)O)CC4)n4ncnc(N)c34)[nH]c12
Outline: as §1

[7] = compound: COc1cc2ncnc(Nc3ccc(F)c(Cl)c3)c2cc1OCCCN1CCOCC1 [gefitinib]
Outline: as §1

[8] = compound: CN1CCN(c2nc(C3=C(c4c[nH]c5ccccc45)C(=O)NC3=O)c3ccccc3n2)CC1 [sotrastaurin]
Outline: as §1

[9] = compound: CON(C)C(=O)N1N=C(c2cc(F)ccc2F)S[C@@]1(CCCN)c1ccccc1 [filanesib]
Outline: as §1

[10] = compound: CS(=O)(=O)N1CCN(Cc2cc3nc(-c4cccc5[nH]ncc45)nc(N4CCOCC4)c3s2)CC1 [pictilisib]
Outline: as §1

[11] = compound: CNC(=O)C1=CC=CC=C1NC2=NC(=NC=C2Cl)NC3=C(C=C(C=C3)N4CCOCC4)OC
Outline: as §1

[12] = compound: COC1=CC=C(C=C1)CN2C=CC3=C2C=C(C=C3)C(=O)NO
Outline: as §1

[13] = compound: CN1CCc2c(c3ccccc3n2Cc2ccc(C(=O)NO)cc2)C1 [Tubastatin A]
Outline: as §1

[14] = compound: COc1cc2nc(-c3cc(F)ccc3O)nc(N[C@@H]3CNC[C@H]3C(C)(C)O)c2cc1OC
Outline: as §1

[15] = compound: CS(=O)(=O)CCNCc1ccc(-c2ccc3ncnc(Nc4ccc(OCc5cccc(F)c5)c(Cl)c4)c3c2)o1 [lapatinib]
Outline: as §1

[16] = compound: COc1cc(C(=O)O)ccc1NC(=O)[C@@H]1N[C@@H](CC(C)(C)C)[C@](C#N)(c2ccc(Cl)cc2F)[C@H]1c1cccc(Cl)c1F [idasanutlin]
Outline: as §1

[17] = compound: CO[C@H]1C[C@@H]2CC[C@@H](C)[C@@](O)(O2)C(=O)C(=O)N2CCCC[C@H]2C(=O)O[C@H]([C@H](C)C[C@@H]2CC[C@H](n3cnnn3)[C@H](OC)C2)CC(=O)[C@H](C)/C=C(\C)[C@@H](O)[C@@H](OC)C(=O)[C@H](C)C[C@H](C)/C=C/C=C/C=C/1C [zotarolimus]
Outline: as §1

[18] = compound: CN1CC[C@H](c2c(O)cc(O)c3c(=O)cc(-c4ccccc4Cl)oc23)[C@H](O)C1 [alvocidib]
Outline: as §1

Measured: log2 fold change

KIF1B isoform 3 (UniProt O60333)
inactive: [1] 0.127 | [2] -0.046 | [3] -0.222 | [4] 0.17 | [5] 0.251 | [6] -0.037

KLHDC2 (UniProt Q9Y2U9)
inactive: [7] 0.057

KIN (UniProt O60870)
inactive: [8] -0.085 | [9] 0.142 | [10] 0.003

KIAA1109 (UniProt Q2LD37)
inactive: [8] 0.01 | [11] 0.02 | [2] -0.252 | [3] 0.003 | [12] 0.174 | [9] -0.353 | [10] 0.022

KLC3 isoform 3 (UniProt Q6P597)
inactive: [8] -0.093 | [13] -0.132 | [9] 0.246 | [14] 0.136 | [15] -0.097

KCTD21 (UniProt Q4G0X4)
inactive: [8] 0.061 | [9] -0.06 | [16] -0.267

KRT10, A0A1B0GVI3
inactive: [5] 1.9 | [7] 0.029 | [6] -0.079 | [10] 0.002

Taken from above (6 entries):
KIF1B isoform 3 (UniProt O60333)
inactive: [1] 0.127 | [2] -0.046 | [3] -0.222 | [4] 0.17 | [5] 0.251 | [6] -0.037

KLHDC2 (UniProt Q9Y2U9)
inactive: [7] 0.057

KIN (UniProt O60870)
inactive: [8] -0.085 | [9] 0.142 | [10] 0.003

KIAA1109 (UniProt Q2LD37)
inactive: [8] 0.01 | [11] 0.02 | [2] -0.252 | [3] 0.003 | [12] 0.174 | [9] -0.353 | [10] 0.022

KLC3 isoform 3 (UniProt Q6P597)
inactive: [8] -0.093 | [13] -0.132 | [9] 0.246 | [14] 0.136 | [15] -0.097

KCTD21 (UniProt Q4G0X4)
inactive: [8] 0.061 | [9] -0.06 | [16] -0.267

More results

JCHAIN (UniProt P01591)
inactive: [2] 0.067 | [3] -0.699 | [5] 0.436 | [7] 0.407 | [6] -0.199

KLHDC10 (UniProt Q6PID8)
inactive: [13] 0.418 | [14] 0.116 | [15] 0.108 | [10] -0.034

KSR2 (UniProt Q6VAB6)
inactive: [8] -0.096 | [11] -0.094 | [9] 0.281 | [10] 0.185

KIFC3 isoform 6 (UniProt Q9BVG8)
inactive: [8] 0.128 | [13] -0.004 | [11] -0.063 | [1] -0.094 | [2] -0.099 | [3] -0.17 | [4] 0.099 | [9] 0.077 | [5] 0.346 | [7] 0.044 | [6] 0.245 | [10] 0.369

KIFAP3 (UniProt Q92845)
inactive: [2] -0.27 | [3] 0.03 | [12] 0.17 | [7] -0.1

KIF13A isoform 4 (UniProt Q9H1H9)
inactive: [8] -0.027 | [9] -0.684 | [17] 0.03 | [16] -0.081

KDM3A (UniProt Q9Y4C1)
inactive: [18] 0.103 | [11] 0.243 | [2] 0.088 | [3] -0.124 | [17] -0.222 | [10] -0.02

KIF20B isoform 2 (UniProt Q96Q89)
inactive: [10] 0.007

KIF26A (UniProt Q9ULI4)
inactive: [8] 0.005 | [11] 0.026 | [2] 0.019 | [3] -0.064 | [12] 0.002 | [9] 0.018 | [5] -0.024 | [14] -0.021 | [7] 0.043 | [6] 0.024 | [15] 0.004

KAT6B (UniProt Q8WYB5)
inactive: [13] -0.003 | [11] 0.007 | [1] -0.046 | [2] -0.003 | [3] 0.058 | [4] 0.009 | [16] 0.07 | [5] -0.05 | [14] -0.04 | [7] -0.025 | [6] -0.133 | [15] -0.021 | [10] 0.052

KALRN (UniProt O60229)
inactive: [18] -0.03 | [11] -0.039 | [2] -0.035 | [3] -0.102 | [17] 0.105 | [7] -0.049

KIFC1 (UniProt Q9BW19)
inactive: [18] -0.014 | [17] 0.068 | [16] 0.235 | [5] -0.027 | [6] -0.317 | [10] 0.121

KIF21A (UniProt H0YI78)
inactive: [11] -0.012

KLC1 isoform 3 (UniProt Q07866)
inactive: [16] -0.044

KIF20A (UniProt O95235)
inactive: [16] 0.09

KDM2B (UniProt Q8NHM5)
inactive: [8] -0.134 | [9] 0.043

KLHL36 (UniProt Q8N4N3)
inactive: [2] -0.279 | [3] 0.023 | [5] -0.036 | [7] 0.333 | [6] 0.036

ITSN2 (UniProt Q9NZM3)
inactive: [11] -0.041 | [2] -0.004 | [3] 0.194 | [10] 0.032

KRR1 (UniProt Q13601)
inactive: [2] -0.104 | [3] -0.044 | [12] -0.135 | [10] 0.02

ITSN1 (UniProt Q15811)
inactive: [8] -0.147 | [9] -0.005 | [16] -0.038 | [5] 0.028 | [14] 0.042 | [6] 0.113 | [15] -0.02 | [10] 0.18
